PMC7404097

Amino acid sequences for entries named in this document (tags omitted). A change or cut given only in a name is not applied to a line headed by its entry.
UniProt P30550: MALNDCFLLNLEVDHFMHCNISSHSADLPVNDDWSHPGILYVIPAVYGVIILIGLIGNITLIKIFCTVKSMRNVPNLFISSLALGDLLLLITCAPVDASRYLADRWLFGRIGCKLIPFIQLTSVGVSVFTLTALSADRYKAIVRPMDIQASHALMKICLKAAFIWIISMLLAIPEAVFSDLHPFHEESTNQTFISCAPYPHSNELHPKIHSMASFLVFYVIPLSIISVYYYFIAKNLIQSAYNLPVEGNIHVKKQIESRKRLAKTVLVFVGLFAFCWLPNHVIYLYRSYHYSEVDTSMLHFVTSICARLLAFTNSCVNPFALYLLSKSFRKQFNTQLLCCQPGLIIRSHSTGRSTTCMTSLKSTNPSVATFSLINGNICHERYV
UniProt P49407: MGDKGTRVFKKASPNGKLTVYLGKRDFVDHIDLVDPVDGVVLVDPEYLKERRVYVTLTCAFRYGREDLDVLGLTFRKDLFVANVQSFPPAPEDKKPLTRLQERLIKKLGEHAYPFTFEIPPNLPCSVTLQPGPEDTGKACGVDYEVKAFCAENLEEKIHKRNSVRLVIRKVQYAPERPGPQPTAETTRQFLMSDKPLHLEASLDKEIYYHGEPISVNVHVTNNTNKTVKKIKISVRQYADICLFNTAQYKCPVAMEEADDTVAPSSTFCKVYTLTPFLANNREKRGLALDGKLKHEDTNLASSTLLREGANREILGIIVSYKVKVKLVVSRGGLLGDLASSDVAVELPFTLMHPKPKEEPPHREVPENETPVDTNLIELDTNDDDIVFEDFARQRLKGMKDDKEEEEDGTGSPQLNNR

Target: GRPRΔC-11S (C-tail truncated GRPR with 11S) (UniProt P30550)
Experiment: split reporter; direct assay: GPCR-11S and 114-arrestin co-expressed in live HEK293 cells (transient transfection, MultiPrime plasmid or baculovirus); 10 min baseline, then 1 µM agonist (isoproterenol, DOTA-TOC, AMBA) or 485 nm light for rhodopsin; furimazine luminescence over time

binding | Substance
binds | 114-β-arrestin-1 (β-arrestin-1 with the small NanoLuc subunit 114 at its N-terminus) (from UniProt P49407 1-418)
binds | 114-β-arrestin-2 (β-arrestin-2 with the small NanoLuc subunit 114 at its N-terminus) (from UniProt P32121 1-409)

No constants are given. Whether binding was seen depends on the method and setting. Binding seen in cells or lysates may run through a third protein. Binding calls can cover weak binding; strength is not graded here.
